# From doi:10.1101/2023.03.10.532066
# No constants are given. Whether binding was seen depends on the method and setting. In cells and extracts the contact can be indirect. Some results given as binding are weak or reduced against the parent protein; the word gives no strength. Sequences can lack the tags named with a protein.
# T1: GST-GLK2 (GOLDEN2-LIKE 2) (Arabidopsis thaliana) (UniProt Q9FFH0)
# T1 sequence: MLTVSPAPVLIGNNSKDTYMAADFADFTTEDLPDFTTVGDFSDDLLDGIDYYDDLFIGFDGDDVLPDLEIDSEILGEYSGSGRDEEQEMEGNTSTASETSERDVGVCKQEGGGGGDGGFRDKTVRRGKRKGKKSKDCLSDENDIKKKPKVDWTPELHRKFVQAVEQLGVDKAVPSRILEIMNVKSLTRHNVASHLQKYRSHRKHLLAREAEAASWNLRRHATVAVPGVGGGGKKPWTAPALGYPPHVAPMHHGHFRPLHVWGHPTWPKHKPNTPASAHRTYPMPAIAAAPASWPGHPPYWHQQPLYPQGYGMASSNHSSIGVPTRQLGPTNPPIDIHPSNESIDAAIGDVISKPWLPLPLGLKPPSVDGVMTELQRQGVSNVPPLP
# T2: GST-GLK1 (GOLDEN2-LIKE 1) (Arabidopsis thaliana) (UniProt Q9SIV3)
# T2 sequence: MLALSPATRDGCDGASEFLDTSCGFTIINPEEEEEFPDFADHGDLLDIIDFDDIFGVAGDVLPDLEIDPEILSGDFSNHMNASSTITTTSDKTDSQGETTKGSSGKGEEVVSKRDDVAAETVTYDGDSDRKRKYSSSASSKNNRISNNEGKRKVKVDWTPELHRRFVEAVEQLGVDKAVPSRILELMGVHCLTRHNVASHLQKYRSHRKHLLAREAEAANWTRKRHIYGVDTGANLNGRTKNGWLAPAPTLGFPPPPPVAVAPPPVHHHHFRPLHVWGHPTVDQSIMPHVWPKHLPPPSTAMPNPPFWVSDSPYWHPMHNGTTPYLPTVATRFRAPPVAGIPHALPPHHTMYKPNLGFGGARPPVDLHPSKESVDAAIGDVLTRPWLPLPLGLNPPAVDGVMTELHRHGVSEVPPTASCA
# T3: GLK2-nLUC (Arabidopsis thaliana) (UniProt Q9FFH0)
# T3 sequence: T1 sequence
# B1: His-TT8 (protein, UniProt Q9FT81 1-518)
# chain: MDESSIIPAEKVAGAEKKELQGLLKTAVQSVDWTYSVFWQFCPQQRVLVWGNGYYNGAIKTRKTTQPAEVTAEEAALERSQQLRELYETLLAGESTSEARACTALSPEDLTETEWFYLMCVSFSFPPPSGMPGKAYARRKHVWLSGANEVDSKTFSRAILAKSAKIQTVVCIPMLDGVVELGTTKKVREDVEFVELTKSFFYDHCKTNPKPALSEHSTYEVHEEAEDEEEVEEEMTMSEEMRLGSPDDEDVSNQNLHSDLHIESTHTLDTHMDMMNLMEEGGNYSQTVTTLLMSHPTSLLSDSVSTSSYIQSSFATWRVENGKEHQQVKTAPSSQWVLKQMIFRVPFLHDNTKDKRLPREDLSHVVAERRRREKLNEKFITLRSMVPFVTKMDKVSILGDTIAYVNHLRKRVHELENTHHEQQHKRTRTCKRKTSEEVEVSIIENDVLLEMRCEYRDGLLLDILQVLHELGIETTAVHTSVNDHDFEAEIRAKVRGKKASIAEVKRAIHQVIIHDTNL
# B2: cLUC-TT8 (protein, UniProt Q9FT81 1-518)
# chain: B1 chain
# B3: PAP1 (PRODUCTION OF ANTHOCYANIN PIGMENTS 1) (protein, UniProt Q9FE25 1-248)
# chain: MEGSSKGLRKGAWTTEEDSLLRQCINKYGEGKWHQVPVRAGLNRCRKSCRLRWLNYLKPSIKRGKLSSDEVDLLLRLHRLLGNRWSLIAGRLPGRTANDVKNYWNTHLSKKHEPCCKIKMKKRDITPIPTTPALKNNVYKPRPRSFTVNNDCNHLNAPPKVDVNPPCLGLNINNVCDNSIIYNKDKKKDQLVNNLIDGDNMWLEKFLEESQEVDILVPEATTTEKGDTLAFDVDQLWSLFDGETVKFD
# B4: PAP2 (protein, UniProt Q9ZTC3 1-249)
# chain: MEGSSKGLRKGAWTAEEDSLLRLCIDKYGEGKWHQVPLRAGLNRCRKSCRLRWLNYLKPSIKRGRLSNDEVDLLLRLHKLLGNRWSLIAGRLPGRTANDVKNYWNTHLSKKHESSCCKSKMKKKNIISPPTTPVQKIGVFKPRPRSFSVNNGCSHLNGLPEVDLIPSCLGLKKNNVCENSITCNKDDEKDDFVNNLMNGDNMWLENLLGENQEADAIVPEATTAEHGATLAFDVEQLWSLFDGETVELD
# B5: GL3 (GLABROUS3) (protein, UniProt Q9FN69 1-637)
# chain: MATGQNRTTVPENLKKHLAVSVRNIQWSYGIFWSVSASQSGVLEWGDGYYNGDIKTRKTIQASEIKADQLGLRRSEQLSELYESLSVAESSSSGVAAGSQVTRRASAAALSPEDLADTEWYYLVCMSFVFNIGEGMPGRTFANGEPIWLCNAHTADSKVFSRSLLAKSAAVKTVVCFPFLGGVVEIGTTEHITEDMNVIQCVKTSFLEAPDPYATILPARSDYHIDNVLDPQQILGDEIYAPMFSTEPFPTASPSRTTNGFDQEHEQVADDHDSFMTERITGGASQVQSWQLMDDELSNCVHQSLNSSDCVSQTFVEGAAGRVAYGARKSRVQRLGQIQEQQRNVKTLSFDPRNDDVHYQSVISTIFKTNHQLILGPQFRNCDKQSSFTRWKKSSSSSSGTATVTAPSQGMLKKIIFDVPRVHQKEKLMLDSPEARDETGNHAVLEKKRREKLNERFMTLRKIIPSINKIDKVSILDDTIEYLQELERRVQELESCRESTDTETRGTMTMKRKKPCDAGERTSANCANNETGNGKKVSVNNVGEAEPADTGFTGLTDNLRIGSFGNEVVIELRCAWREGVLLEIMDVISDLHLDSHSVQSSTGDGLLCLTVNCKHKGSKIATPGMIKEALQRVAWIC
# B6: EGL3 (ENHANCER OF GLABRA3) (protein, UniProt Q9CAD0 1-596)
# chain: MATGENRTVPDNLKKQLAVSVRNIQWSYGIFWSVSASQPGVLEWGDGYYNGDIKTRKTIQAAEVKIDQLGLERSEQLRELYESLSLAESSASGSSQVTRRASAAALSPEDLTDTEWYYLVCMSFVFNIGEGIPGGALSNGEPIWLCNAETADSKVFTRSLLAKSASLQTVVCFPFLGGVLEIGTTEHIKEDMNVIQSVKTLFLEAPPYTTISTRSDYQEIFDPLSDDKYTPVFITEAFPTTSTSGFEQEPEDHDSFINDGGASQVQSWQFVGEEISNCIHQSLNSSDCVSQTFVGTTGRLACDPRKSRIQRLGQIQEQSNHVNMDDDVHYQGVISTIFKTTHQLILGPQFQNFDKRSSFTRWKRSSSVKTLGEKSQKMIKKILFEVPLMNKKEELLPDTPEETGNHALSEKKRREKLNERFMTLRSIIPSISKIDKVSILDDTIEYLQDLQKRVQELESCRESADTETRITMMKRKKPDDEEERASANCMNSKRKGSDVNVGEDEPADIGYAGLTDNLRISSLGNEVVIELRCAWREGILLEIMDVISDLNLDSHSVQSSTGDGLLCLTVNCKHKGTKIATTGMIQEALQRVAWIC
# B7: TTG1 (… TESTA GLABRA 1) (protein, UniProt Q9XGN1 1-341)
# chain: MDNSAPDSLSRSETAVTYDSPYPLYAMAFSSLRSSSGHRIAVGSFLEDYNNRIDILSFDSDSMTVKPLPNLSFEHPYPPTKLMFSPPSLRRPSSGDLLASSGDFLRLWEINEDSSTVEPISVLNNSKTSEFCAPLTSFDWNDVEPKRLGTCSIDTTCTIWDIEKSVVETQLIAHDKEVHDIAWGEARVFASVSADGSVRIFDLRDKEHSTIIYESPQPDTPLLRLAWNKQDLRYMATILMDSNKVVILDIRSPTMPVAELERHQASVNAIAWAPQSCKHICSGGDDTQALIWELPTVAGPNGIDPMSVYSAGSEINQLQWSSSQPDWIGIAFANKMQLLRV
# Columns and labels:
# [1] = biological target: T1, GST-GLK2 (GOLDEN2-LIKE 2) (Arabidopsis thaliana); assay: pull-down
# [2] = biological target: T2, GST-GLK1 (GOLDEN2-LIKE 1) (Arabidopsis thaliana); assay: pull-down
# [3] = biological target: T3, GLK2-nLUC (Arabidopsis thaliana); assay: split reporter
binder,measurement,setting,value
B1,binding,[1],binds
same,binding,[2],binds
B2,binding,[3],binds
B3,binding,[3],no binding
B4,binding,[3],no binding
B5,binding,[3],no binding
B6,binding,[3],no binding
B7,binding,[3],no binding
